Source: article doi:10.64898/2025.12.16.694677
No constants are given. Whether binding was seen depends on the method and setting. Some entries that bind do so weakly or less than the wild type.

Target: T1, Gremlin-1 (GREM1), not biotinylated, as used in the competitive LOCI assays (human) (UniProt O60565)
T1 sequence: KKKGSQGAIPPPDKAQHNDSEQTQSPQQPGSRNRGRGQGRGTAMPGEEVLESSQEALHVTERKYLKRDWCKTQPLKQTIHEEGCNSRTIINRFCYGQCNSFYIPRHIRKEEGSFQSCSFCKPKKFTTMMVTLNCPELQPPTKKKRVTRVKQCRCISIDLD
Experiment: AlphaScreen or HTRF

B1: BMP-4 (ab231930, Abcam) (ligand, UniProt P12644 293-408)
chain: SPKHHSQRARKKNKNCRRHSLYVDFSDVGWNDWIVAPPGYQAFYCHGDCPFPLADHLNSTNHAIVQTLVNSVNSSIPKACCVPTELSAISMLYLDEYDKVVLKNYQEMVVEGCGCR
With B1 the binding was “binds”.

B2: biotinylated BMP-2 (bs-48015P-Biotin, Bioss) (ligand, UniProt P12643 283-396)
chain: QAKHKQRKRLKSSCKRHPLYVDFSDVGWNDWIVAPPGYHAFYCHGECPFPLADHLNSTNHAIVQTLVNSVNSKIPKACCVPTELSAISMLYLDENEKVVLKNYQDMVVEGCGCR
modifications: biotin (site not stated)
In the case of B2, the binding is reported as “binds”.
